The values that follow come from publication PMC4148118.

One assay deals with T1, c-Myc-GCIP (human) (UniProt O95273).
T1 sequence: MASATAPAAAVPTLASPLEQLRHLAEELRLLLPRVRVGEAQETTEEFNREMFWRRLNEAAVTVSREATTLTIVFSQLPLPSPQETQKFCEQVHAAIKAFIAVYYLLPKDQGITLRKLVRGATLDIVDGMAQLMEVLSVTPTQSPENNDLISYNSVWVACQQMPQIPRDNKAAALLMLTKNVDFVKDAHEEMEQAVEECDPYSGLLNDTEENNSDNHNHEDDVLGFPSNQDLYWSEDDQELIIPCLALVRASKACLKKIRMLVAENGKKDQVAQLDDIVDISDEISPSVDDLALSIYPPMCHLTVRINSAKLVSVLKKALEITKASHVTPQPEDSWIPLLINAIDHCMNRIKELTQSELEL
In words: co-IP; 293T cells cotransfected with c-Myc-GCIP and Flag-Id1; lysis in NP-40 buffer (150 mM NaCl, 1.0% NP-40, 50 mM Tris-Cl pH 8.0); immunoprecipitation with anti-c-Myc, immunoblot with anti-Flag; also from cytoplasmic and nuclear fractions (100 μg protein each). Background: A western blot detects proteins with antibodies after separation by electrophoresis.

Assay [1] addresses T2, endogenous GCIP (A549 cells) (human (endogenous in A549)) (UniProt O95273).
T2 sequence: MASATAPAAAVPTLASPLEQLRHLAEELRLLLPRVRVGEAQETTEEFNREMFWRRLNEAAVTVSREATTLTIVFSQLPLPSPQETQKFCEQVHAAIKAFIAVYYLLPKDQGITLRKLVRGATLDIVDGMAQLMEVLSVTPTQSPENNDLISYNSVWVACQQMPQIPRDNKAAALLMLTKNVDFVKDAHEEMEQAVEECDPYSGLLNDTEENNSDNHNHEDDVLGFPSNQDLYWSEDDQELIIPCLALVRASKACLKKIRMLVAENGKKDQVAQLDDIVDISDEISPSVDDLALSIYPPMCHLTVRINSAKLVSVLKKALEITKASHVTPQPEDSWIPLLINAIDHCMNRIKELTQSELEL
Description: co-IP; endogenous proteins in A549 cells, without or with BMP2 for 24 h; immunoprecipitation with an anti-GCIP antibody, Id1 detected.

For the next assay, the target named is T3, GST-Id2 fusion protein (UniProt Q02363).
T3 sequence: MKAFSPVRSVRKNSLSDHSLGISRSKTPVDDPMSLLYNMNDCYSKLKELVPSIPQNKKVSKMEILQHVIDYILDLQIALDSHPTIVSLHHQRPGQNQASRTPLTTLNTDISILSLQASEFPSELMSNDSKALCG
In words: pull-down; GST pull-down; GST-Id (Id1-4) fusion proteins from BL-21 bacteria with in vitro-translated GCIP; SDS-PAGE, probed with an anti-GCIP antibody; GST as control; only the target purified.

For a further assay, the target named is T4, GST-Id4 fusion protein (UniProt P47928).
T4 sequence: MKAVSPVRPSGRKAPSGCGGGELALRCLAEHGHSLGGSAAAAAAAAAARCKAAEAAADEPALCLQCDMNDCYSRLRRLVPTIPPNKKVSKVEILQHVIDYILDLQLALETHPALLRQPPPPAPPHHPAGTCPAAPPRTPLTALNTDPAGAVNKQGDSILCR
Described as above.

The next assay concerns the target T5, GST-Id1 fusion protein (UniProt P41134).
T5 sequence: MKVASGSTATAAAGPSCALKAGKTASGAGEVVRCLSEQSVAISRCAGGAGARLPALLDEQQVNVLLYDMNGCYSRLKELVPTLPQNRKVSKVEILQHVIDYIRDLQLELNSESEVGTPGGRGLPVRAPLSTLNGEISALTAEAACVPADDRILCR
Described as above.

In another assay the target is T6, GST-Id3 fusion protein (UniProt Q02535).
T6 sequence: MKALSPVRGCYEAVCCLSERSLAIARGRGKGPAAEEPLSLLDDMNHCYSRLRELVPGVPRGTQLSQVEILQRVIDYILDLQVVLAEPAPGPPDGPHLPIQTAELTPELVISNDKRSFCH
The description is as above.

Another assay addresses T7, pBIND full-length Id4 (UniProt P47928).
T7 sequence: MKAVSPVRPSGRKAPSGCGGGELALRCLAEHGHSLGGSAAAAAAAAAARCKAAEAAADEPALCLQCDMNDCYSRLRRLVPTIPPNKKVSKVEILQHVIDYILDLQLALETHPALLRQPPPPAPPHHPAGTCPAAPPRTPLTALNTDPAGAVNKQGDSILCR
In words: two-hybrid; mammalian two-hybrid; full-length Id1, Id2, Id3, Id4 in pBIND against GCIP; truncated constructs for mapping.

Another assay has as its target T8, pBIND full-length Id2 (UniProt Q02363).
T8 sequence: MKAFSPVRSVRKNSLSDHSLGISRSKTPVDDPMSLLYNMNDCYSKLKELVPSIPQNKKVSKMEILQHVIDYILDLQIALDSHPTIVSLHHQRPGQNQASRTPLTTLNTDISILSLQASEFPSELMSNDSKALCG
The assay is described as above.

The target in a further assay is T9, pBIND full-length Id3 (UniProt Q02535).
T9 sequence: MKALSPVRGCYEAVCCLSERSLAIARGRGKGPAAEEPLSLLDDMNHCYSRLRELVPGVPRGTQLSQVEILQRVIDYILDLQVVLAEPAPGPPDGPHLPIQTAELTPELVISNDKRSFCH
The assay is described as above.

In another assay the target is T10, pBIND full-length Id1 (UniProt P41134).
T10 sequence: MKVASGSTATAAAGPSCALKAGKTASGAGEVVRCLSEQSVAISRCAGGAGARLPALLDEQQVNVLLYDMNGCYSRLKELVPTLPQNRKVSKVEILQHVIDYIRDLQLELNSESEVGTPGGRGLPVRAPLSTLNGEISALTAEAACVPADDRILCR
The description is as above.

These are yes or no findings as the source states them, for the method shown. For some of these results: In cells and extracts the contact can be indirect. Some binding calls cover weakened binding; strength is not graded here. For some of these results: Tags and fused reporters may be left off the sequences shown.

B1: Flag-Id1 (protein, UniProt P41134 1-155)
chain: MKVASGSTATAAAGPSCALKAGKTASGAGEVVRCLSEQSVAISRCAGGAGARLPALLDEQQVNVLLYDMNGCYSRLKELVPTLPQNRKVSKVEILQHVIDYIRDLQLELNSESEVGTPGGRGLPVRAPLSTLNGEISALTAEAACVPADDRILCR
Turning to B1, the binding entry in the assay with c-Myc-GCIP (human) is listed as “binds”.

B2: endogenous Id1 (A549 cells) (protein, UniProt P41134 1-155)
chain: MKVASGSTATAAAGPSCALKAGKTASGAGEVVRCLSEQSVAISRCAGGAGARLPALLDEQQVNVLLYDMNGCYSRLKELVPTLPQNRKVSKVEILQHVIDYIRDLQLELNSESEVGTPGGRGLPVRAPLSTLNGEISALTAEAACVPADDRILCR
Consider B2, for which the binding entry in assay [1] is given as “binds”.

B3: in vitro-translated GCIP (protein, UniProt O95273 1-360)
chain: MASATAPAAAVPTLASPLEQLRHLAEELRLLLPRVRVGEAQETTEEFNREMFWRRLNEAAVTVSREATTLTIVFSQLPLPSPQETQKFCEQVHAAIKAFIAVYYLLPKDQGITLRKLVRGATLDIVDGMAQLMEVLSVTPTQSPENNDLISYNSVWVACQQMPQIPRDNKAAALLMLTKNVDFVKDAHEEMEQAVEECDPYSGLLNDTEENNSDNHNHEDDVLGFPSNQDLYWSEDDQELIIPCLALVRASKACLKKIRMLVAENGKKDQVAQLDDIVDISDEISPSVDDLALSIYPPMCHLTVRINSAKLVSVLKKALEITKASHVTPQPEDSWIPLLINAIDHCMNRIKELTQSELEL
With B3, the binding result in the assay with GST-Id2 fusion protein was “binds weakly”; in the assay with GST-Id4 fusion protein it was “binds weakly”; in the assay with GST-Id1 fusion protein, “binds”; in the assay with GST-Id3 fusion protein it was “binds”.

B4: GCIP (mammalian two-hybrid construct) (protein, UniProt O95273 1-360)
chain: MASATAPAAAVPTLASPLEQLRHLAEELRLLLPRVRVGEAQETTEEFNREMFWRRLNEAAVTVSREATTLTIVFSQLPLPSPQETQKFCEQVHAAIKAFIAVYYLLPKDQGITLRKLVRGATLDIVDGMAQLMEVLSVTPTQSPENNDLISYNSVWVACQQMPQIPRDNKAAALLMLTKNVDFVKDAHEEMEQAVEECDPYSGLLNDTEENNSDNHNHEDDVLGFPSNQDLYWSEDDQELIIPCLALVRASKACLKKIRMLVAENGKKDQVAQLDDIVDISDEISPSVDDLALSIYPPMCHLTVRINSAKLVSVLKKALEITKASHVTPQPEDSWIPLLINAIDHCMNRIKELTQSELEL
As for B4, the binding entry is “binds weakly” with pBIND full-length Id4, “binds weakly” with pBIND full-length Id2, “binds” with pBIND full-length Id3 and “binds” in the assay with pBIND full-length Id1.
